Reference: patent US7385088B1, “Compounds from Antrodia camphorata” (Golden Biotechnology Corporation, priority 2007, dated 2008)

What was measured:
Assay type in all cases: cell-based, human
[1] = tested on: LNCaP; experiment: MTT survival assay, prostate cancer cells LNCaP; details: relative to control group IC50 11.49 μg/ml
Text: (§1) Therefore Antroquinonol B and Antroquinonol C can be used in inhibiting cancer cell growth of breast cancer, lung cancer, hepatic cancer, and prostate cancer, which can further be applied in cancer treatment of breast cancer, lung cancer, hepatic cancer, prostate cancer and the like. The details of the examples are described as follows:
(§2) MTT assay is commonly used to determine cell proliferation, percent of viable cells, and cytotoxicity. 3-[4,5-dimethylthiazol-2-yl]2,5-diphenyltetrazolium bromide (MTT) is a yellow dye, which can be absorbed by the living cells and be reduced to purplish blue formazan crystals by succinate tetrazolium reductase in mitochondria. Formazan formation can therefore be used to assess and determine the survival rate of cells.
(§3) The NCI anti-cancer drug screen model was also employed to test the anti-cancer effect of the Antroquinonols in the present invention. Antroquinonol B and Antroquinonol C isolated from example 2 were added into the culture media of human prostate cancer cells, LNCaP or DU-145, and prostate cancer cell survival rates were analyzed with the abovementioned MTT assay. […]
(§4) The human prostate-cancer cells, LNCaP and DU-145, were cultivated in media containing fetal calf serum for 24 hours. […] The plates were read on an ELISA reader at wavelength of 570 nm to determine the survival rates.

[2] = tested on: HepG2; experiment: MTT survival assay, hepatic cancer cells Hep G2; details: relative to crude extract IC50 18.63 μg/ml
Text: (§5) Therefore Antroquinonol B and Antroquinonol C can be used in inhibiting cancer cell growth of breast cancer, lung cancer, hepatic cancer, and prostate cancer, which can further be applied in cancer treatment of breast cancer, lung cancer, hepatic cancer, prostate cancer and the like. The details of the examples are described as follows: MTT assay is commonly used to determine cell proliferation, percent of viable cells, and cytotoxicity. 3-[4,5-dimethylthiazol-2-yl]2,5-diphenyltetrazolium bromide (MTT) is a yellow dye, which can be absorbed by the living cells and be reduced to purplish blue formazan crystals by succinate tetrazolium reductase in mitochondria. Formazan formation can therefore be used to assess and determine the survival rate of cells. The NCI anti-cancer drug screen model was employed to test the anti-cancer effect of the Antroquinonol B and Antroquinono C in the present invention. The Antroquinonos isolated from example 1 were added into the culture media of human hepatic-cancer cells, Hep 3B or Hep G2, for tumor cell survival assay. Hepatic-cancer cells Hep 3B (BCRC 60434) and Hep G2 (BCRC 60025), were obtained from the Bioresources Collection and Research Center (BCRC) of the Food Industry Research and Development Institute. […] The plates were read on an ELISA reader at wavelength of 570 nm to determine the survival rates.

[3] = tested on: DU-145; experiment: MTT survival assay, prostate cancer cells DU-145; details: relative to control group IC50 41.39 μg/ml
Text: as §1, §2, §3, §4

[4] = tested on: A549; experiment: MTT survival assay, lung cancer cells A549; details: relative to crude extract IC50 13.21 μg/ml
Text: Therefore Antroquinonol B and Antroquinonol C can be used in inhibiting cancer cell growth of breast cancer, lung cancer, hepatic cancer, and prostate cancer, which can further be applied in cancer treatment of breast cancer, lung cancer, hepatic cancer, prostate cancer and the like. The details of the examples are described as follows: MTT assay is commonly used to determine cell proliferation, percent of viable cells, and cytotoxicity. 3-[4,5-dimethylthiazol-2-yl]2,5-diphenyltetrazolium bromide (MTT) is a yellow dye, which can be absorbed by the living cells and be reduced to purplish blue formazan crystals by succinate tetrazolium reductase in mitochondria. Formazan formation can therefore be used to assess and determine the survival rate of cells. The NCI anti-cancer drug screen model was also employed to test the anti-lung cancer effect of the Antroquinonol B and Antroquinonol C in the present invention. The Antroquinonols isolated from example 1 were added into the culture media of human lung cancer cell A549 with the abovementioned MTT assay to analyze lung cancer cell survival rates. Human lung cancer cell A549 was obtained from the Bioresources Collection and Research Center (BCRC) of the Food Industry Research and Development Institute with an accession number of BCRC 60074. […] The plates were read on an ELISA reader at wavelength of 570 nm to determine the survival rates.

[5] = tested on: MDA-MB-231; experiment: MTT survival assay, breast cancer cells MDA-MB-231; details: relative to crude extract IC50 25.81 μg/ml
Text: (§6) Therefore Antroquinonol B and Antroquinonol C can be used in inhibiting cancer cell growth of breast cancer, lung cancer, hepatic cancer, and prostate cancer, which can further be applied in cancer treatment of breast cancer, lung cancer, hepatic cancer, prostate cancer and the like. The details of the examples are described as follows: The NCI anti-cancer drug screen model was adopted to test the anti-cancer effect of the isolated compounds from example 1 in the present invention. The isolated Antroquinonol B and Antroquinonol C from example 1 were added into the culture media of human breast-cancer cells, MCF-7 or MDA-MB-231, to test for tumor cell survival. This survival assay was carried out with the widely known MTT (3-[4,5-dimethylthiazol-2-yl]2,5-diphenyltetrazolium bromide) assay. MCF-7 cell line is originated from primary breast cancer cells (early stage), sensitive to estrogen and therefore is estrogen-dependent, while MDA-MB-231 is insensitive to estrogen and therefore is estrogen-independent, which is a difficult tumor with a low survival rate. MTT assay is commonly used to determine cell proliferation, percent of viable cells, and cytotoxicity. […] The plates were read on an ELISA reader at wavelength of 570 nm to determine the survival rates.

[6] = tested on: MCF-7; experiment: MTT survival assay, breast cancer cells MCF-7; details: relative to crude extract IC50 11.13 μg/ml
Text: as §6

[7] = tested on: Hep3B; experiment: MTT survival assay, hepatic cancer cells Hep 3B; details: relative to crude extract IC50 5.10
Text: as §5

| Structure (SMILES) | IC50 lower than the IC50 value of the control group, LNCaP [1] [%] | IC50 lower than that of crude extracts from A. camphorata, Hep G2 [2] [%] | IC50 lower than the IC50 value of the control group, DU-145 [3] [%] | IC50 lower than that of crude extracts from A. camphorata, A549 [4] [%] | IC50 lower than that of crude extracts from A. camphorata, MDA-MB-231 [5] [%] | IC50 lower than that of crude extracts from A. camphorata, MCF-7 [6] [%] | IC50 lower than that of crude extracts from A. camphorata, Hep 3B [7] [%] |
| --- | --- | --- | --- | --- | --- | --- | --- |
| COC1=C(OC)[C@H](O)[C@H](C/C=C(\C)CC/C=C(/C)C/C=C/C(C)(C)OC)[C@@H](C)C1=O [Antroquinonol C] | 24.11 | 72.52 | 70.5 | 37.85 | 15.15 | 89.49 | 74.12 |
| COC1=C(OC)[C@H](O)[C@H](C/C=C(\C)CC/C=C(/C)C/C=C/C(C)(C)O)[C@@H](C)C1=O [Antroquinonol B] | 50.65 | 82.18 | 75.55 | 9.92 | 66.21 | 82.56 | 76.27 |
